The list shows a part of the results.
B1: il2ra_site1_3nfp_normal_mot_HHH_b2_05589_af2_000000178_0001_1_18_H_._HHH_b2_04912_af2_0001_0000100001_0000001_0 (protein)
chain: SSSSSEEFRQLQELDRELWKLRREGDEEEAKRVAKEALELAEELNDEAAKRLVRLWLELLSSSSS
B2: il2ra_site1_1z92_sap_25_mot_HHH_b1_04615_af2_000000156_0001_38_52_H_._HHH_b1_02208_0001_0000100001_0000001_0_0001_af2pred_0001_af2pred (protein)
chain: SSSSSDEEEIEEEILKLFREAMRIKDPEERERVLERAKELAEEINDERAKEDIERLEELLSSSSS
B3: il2ra_site2_3nfp_sap_23_mot_347257a5708f0dc4a322ca97a98db719_0001_1_af2_000000210_0001_36_49_H_._796cb09f51c241c629a2416424e53d75_0001_0001_0000100001_0000001_0 … (protein)
chain: SSSSDKEEERVEELLEELKRLIEEGDEEKARRAFAEAAHLIFELNDSELFARLAELALELWSSSS
B4: il2ra_site2_2erj_normal_mot_HHH_b1_06554_af2_000000190_0001_44_57_H_._HHH_b1_08046_af2_0001_0000200004_0000001_0 (protein)
chain: SSSSSDTVEVLLELAEELAKEGDKAELELILRYLELNREDDNTEEVEEAYEIVRELLERLSSSSS
B5: il2ra_site1_2b5i_sap_13_mot_HHH_b2_00063_000000054_0001_1_20_H_._HHH_b1_05167_0001_0000400023_0000001_0_0001 (protein)
chain: SSSSSERARQAIELFREADELDKRGNPEEAERVLEEALEIAKENGNRLLILMIENALRTLKSSSS
B6: il2ra_site2_3nfp_normal_mot_HHH_b1_00239_000000199_0001_23_39_H_._HHH_b2_02904_0001_0000200025_0000001_0 (protein)
chain: SSSSNEEILREAAELLLELLEERGDEEELRELEELLEELKRHGDPELQLELYAVLARIYSSSSSS
B7: il2ra_site2_2erj_normal_mot_c2bf78bdce995293a161f7082e24b401_0001_af2_000000000_0001_17_32_H_._HHH_b1_00672_0001_0000200019_0000001_0 (protein)
chain: SSSSTAEELFKLLQELLRLLQEGDEEEAERVLEEARRFAEELGSDNVKEFLEILFRLFEESSSSS
B8: il2ra_site1_1z92_normal_mot_ems_3hC_153_0002_000000245_0001_46_63_H_._6169ea741eebcbe25a7a19b2986e1e54_0001_1_0001_0000100003_0000001_0_af2pred_0001_af2pred (protein)
chain: SEEEELEELAEEAGVPPKDLKFLVEVAKRKAGGDPELTLEILVRLLKSFGDPDAQELARLIEEKR
B9: il2ra_site2_2erj_normal_mot_HHH_b1_07584_000000201_0001_42_55_H_._HHH_b1_05881_0001_0000300010_0000001_0_af2pred_0001_af2pred (protein)
chain: SSSSSLEKRVAELLEEVIRLAHEGNPEEARRLLEELLELLEELNNPELFAAVEANLRRVRKSSSS
B10: il2ra_site1_3nfp_normal_mot_HHH_b1_08723_000000044_0001_1_15_H_._HHH_b2_03902_af2_0001_0001400091_0000001_1 (protein)
chain: SSSSSDEELERLFRELFELAQRGDEEEARKLAEELAELAEELGDPHTLRSAEIALRLLRRSSSSS
B11: il2ra_site2_2erj_sap_22_mot_HHH_b2_01204_af2_000000051_0001_19_34_H_._HHH_b2_04498_0001_0000300038_0000001_1_0001_af2pred_0001_1_af2pred_swapped (protein)
chain: SSSSSEEVRERVEELLEEAKQIEDPEEALHVLSEAFELALKVDDPELKERVLRVLRELTNSSSSS
B12: il2ra_site2_2erj_normal_mot_HHH_b1_02466_000000018_0001_22_38_H_._HHH_b1_06888_0001_0000200008_0000001_0 (protein)
chain: SSSSDEELRREVEELLEEIKRLSPEEVNRLLQEIMKLLEELGDPEIHRLAWEALEILARLRSSSS
B13: il2ra_site1_3nfp_sap_13_mot_HHH_b2_07180_000000236_0001_22_38_H_._HHH_b1_06361_0001_0000100007_0000001_0_0001_af2pred_0001_af2pred_1_swapped (protein)
chain: SSSSTDRLKEFAELAREVSKLIQEGDEEEAKKLLEELERLAEEANSRVAKLLVEHLEEKLGSSSS
B14: il2ra_site1_3nfp_normal_mot_7f2fc9564206058543fe500fefea0e08_0001_000000219_0001_1_13_H_._3f99faf52545b03be78200a5c604c070_0001_1_0001_0000200023_0000001_0_1_af … (protein)
chain: SAVEELVERLEERGRIPPELAELLQEVIEKAHEKGDPRLLKLLQEALELAKRDPEKAREVVEKAT
B15: il2ra_site1_1z92_normal_mot_HHH_b2_02821_000000266_0001_1_19_H_._HHH_b1_08462_0001_0000100009_0000001_0 (protein)
chain: SSSSSSAEWAFELAELLLKTAERLGNERSLERVEFVLRQLRLLGDEELVEELQELLERVTSSSSS
B16: il2ra_site1_3nfp_sap_19_mot_092036b618aed672410521e3cd842e06_0001_1_af2_000000145_0001_16_32_H_._05e43983d6d416f7770a7ecfe97503de_0001_0001_0000100003_0000001_0 … (protein)
chain: SSSSDEEEREFLELAHELTKAWREGDKELAEELVRQAIELAEKLNDEKAKRVLEWLLEQFSSSSS
B17: il2ra_site1_3nfp_sap_8_mot_HHH_b2_06193_000000064_0001_1_20_H_._HHH_b2_06395_0001_0000200001_0000001_0_0001 (protein)
chain: SEEEVRKLLKEILQNPDPHEVERLLEELLKELEERGDPAARFVRQDLRHVRKMLEHAKESFEKSP
B18: il2ra_site2_3nfp_normal_mot_HHH_b1_03516_af2_000000045_0001_38_52_H_._HHH_b1_06009_0001_0000200012_0000001_0 (protein)
chain: SSSSHREDLIRALLILAKRLVEELEDPELRRQLEELIEKLEEEGDPHIAIRLAELLNEINSSSSS
B19: il2ra_site2_2erj_normal_mot_HHH_b1_07186_000000032_0001_43_57_H_._HHH_b2_07598_0001_0000500024_0000001_1 (protein)
chain: SSSSDEEKQKELLELLAKAAEIPDPEEARKVAEEALELAEELGNEYLERYARLALRDIRESSSSS
B20: il2ra_site1_1z92_normal_mot_30aa582283ecb64a35315be28fff3e94_0001_000000110_0001_35_49_H_._HHH_b1_02999_0001_0000100009_0000001_0 (protein)
chain: SSSSDSRERTAERLVEDFVRIAGLSEEQEEKLRELAKELVEEGYSPIEIAEILEELAKRLSSSSS
B21: il2ra_site2_2erj_sap_24_mot_HHH_b1_00607_000000269_0001_21_38_H_._HHH_b2_07520_0001_0000700023_0000001_0_0001_af2pred_0001_af2pred (protein)
chain: SSSSDEALEEAARVLLRLSELLLNGNPEEAEELVEEAERRLEELGNPFVAELVRKYYERAKSSSS
B22: il2ra_site2_2erj_sap_18_mot_HHH_b1_08056_000000037_0001_43_58_H_._HHH_b1_08417_0001_0000800010_0000001_0_0001 (protein)
chain: SSSSSDEEEEVEELLEEAKHIEDPEEALKVLSRAFEVAFEAGDPELASKVIKLAHELIRGSSSSS
B23: il2ra_site2_3nfp_normal_mot_HHH_b2_00429_000000100_0001_21_37_H_._HHH_b1_03508_af2_0001_0000300024_0000001_0 (protein)
chain: SSSSDEERLEKLLEEIEEAVRRGDEELFRKLAAELSHLIYELGDHEAFHLLADLLFKFAQGSSSS
B24: il2ra_site2_3nfp_normal_mot_HHH_b1_08097_000000036_0001_22_39_H_._HHH_b1_07967_0001_0000100011_0000001_0 (protein)
chain: SSSSDVEERLKELLEELQELSRKRDEEEFRRVAREIIQLVYENNDHEAFALLADIIFEFLGSSSS
B25: il2ra_site1_3nfp_sap_11_mot_9e5a4332513ba949eb20fa21f8df9fd0_0001_1_000000261_0001_36_51_H_._HHH_b1_04058_0001_0000700043_0000001_0_0001 (protein)
chain: SSSSTQEAAKLFHEAWRIAAELDDHEAAQRIYELMRRVIRTGDPELEEELRELFEELEERGSSSS
B26: il2ra_site2_2erj_normal_mot_HHH_b1_08185_000000063_0001_41_55_H_._HHH_b1_01940_0001_0000100005_0000001_0_af2pred_0001_1_af2pred_swapped (protein)
chain: SSSSTEVEHEVNELVFEADQLAEEGNPEEARKVLEEALEIAEENGNPRLQAFLRQSLKRLSSSSS
B27: il2ra_site2_2erj_normal_mot_HHH_b2_01275_af2_000000073_0001_23_39_H_._HHH_b2_01451_af2_0001_0000100001_0000001_0 (protein)
chain: SSSSSEELRRLYKLAVRLLRLLSEGDEEQLEEILEEIEELAEKLQSETAEELLRHVKERLSSSSS
B28: il2ra_site2_3nfp_normal_mot_HHH_b1_02297_000000279_0001_41_58_H_._HHH_b2_05784_0001_0000400086_0000001_0 (protein)
chain: SSSSDEERVEELLEQAEEKFKRGDEEEVRKLLAEATHIAYERNDFELFALVNEVLFRLEENSSSS
B29: il2ra_site2_2erj_sap_32_mot_HHH_b1_08046_000000210_0001_39_53_H_._9954946a0e56f4654b791dc7bfda0e44_0001_1_0001_0000200003_0000001_1_0001_af2pred_0001_af2pred (protein)
chain: SSSSDLLRRVFELAEEALELIEKGDPEEVEELLREIRELAEETGNKSIELALRKLEEELGSSSSS
B30: il2ra_site1_2b5i_normal_mot_HHH_b2_04910_000000118_0001_1_19_H_._HHH_b2_04126_0001_0000400013_0000001_0_af2pred_dldesign_0_af2pred (protein)
chain: SSSSSPESVRIRELVEEAERLFKEGKEEEARRVLEEALRIARAANDASAVKYLEALLKQLSSSSS
B31: il2ra_site1_2b5i_normal_mot_2cbe48e66a1f39b3fed734b245ab0a04_0001_000000015_0001_17_31_H_._HHH_b2_00579_0001_0000300020_0000001_1 (protein)
chain: SSSSSDEEREKQVRELLEEAKRIEDPHEAVRVLFRAASLAWQAGDEELLEEVEKVAREQSSSSSS
B32: il2ra_site1_3nfp_sap_15_mot_119b7766384adbe86006a62bce89dba1_0001_af2_000000059_0001_18_32_H_._603d184e1848ec444e697cdbd409e9a6_0001_1_af2_0001_0000100011_00000 … (protein)
chain: SSSSDINKRLEELHEEIIEAKERGDPELVEELLEEFEELVEEANSPVARLMLERLKEELESSSSS
B33: il2ra_site1_2b5i_normal_mot_HHH_b2_04633_000000016_0001_38_52_H_._HHH_b2_05139_0001_0000300030_0000001_0_af2pred_0001_af2pred_1 (protein)
chain: SSSSDEVFQRVYELWHRAARLHQNGNPEEARELLKEALEIAEENNDEKIREQLEEFLKKASSSSS
B34: il2ra_site2_3nfp_normal_mot_HHH_b1_00660_af2_000000090_0001_40_57_H_._HHH_b2_06895_0001_0000600025_0000001_0_af2pred_0001_af2pred (protein)
chain: SSSSDQEVRELLEEVEELLERGDYEEARRLLERAAELARQLGDFELFAEIVRLRRLLEELSSSSS
B35: il2ra_site2_3nfp_sap_20_mot_HHH_b1_07963_af2_000000042_0001_1_17_H_._HHH_b1_07089_0001_0000100005_0000001_0_0001 (protein)
chain: SSSSDEEKLEHLIEQALHAAEAHGNPEVAERIEELLEEFRRKGDPRAAIEAYKLMYEMLEGSSSS
B36: il2ra_site1_2b5i_normal_mot_HHH_b2_04910_000000118_0001_1_19_H_._HHH_b1_01633_0001_0000100002_0000001_0_af2pred_dldesign_0_af2pred (protein)
chain: SSSSSKGQEILRLFLEADKLFKEGKPEEAKKLLEEALKLAKEIKSNSLIKFIESALKQIESSSSS
B37: il2ra_site1_2b5i_normal_mot_22370d59370c406a0c205a431f537cfa_0001_af2_000000027_0001_1_31_H_._HHH_b2_07439_af2_0001_0000200015_0000001_0 (protein)
chain: SSSNNEEIREITRIVWRLRFKFNLSQEQAQELARLAAELEDRGISVEEIEEILEELAERLGSSSS

target: il2ra, P01589; assay: yeast display titration

Apparent Kd, inactive:
B1 no binding seen
B2 no binding seen
B3 no binding seen
B4 no binding seen
B5 no binding seen
B6 no binding seen
B7 no binding seen
B8 no binding seen
B9 no binding seen
B10 no binding seen
B11 no binding seen
B12 no binding seen
B13 no binding seen
B14 no binding seen
B15 no binding seen
B16 no binding seen
B17 no binding seen
B18 no binding seen
B19 no binding seen
B20 no binding seen
B21 no binding seen
B22 no binding seen
B23 > 412 nM
B24 no binding seen
B25 no binding seen
B26 no binding seen
B27 no binding seen
B28 no binding seen
B29 no binding seen
B30 no binding seen
B31 no binding seen
B32 no binding seen
B33 no binding seen
B34 no binding seen
B35 no binding seen
B36 no binding seen
B37 no binding seen

7 successive records from above, for reference:
Apparent Kd, inactive:
B22 no binding seen
B23 > 412 nM
B24 no binding seen
B25 no binding seen
B26 no binding seen
B27 no binding seen
B28 no binding seen

— publication PMC10163288
